Assay [1] deals with Fas-associated death domain (FADD), human (human (endogenous in HeLa)) (UniProt Q13158). The experiment in a line: co-IP; endogenous proteins in lysates of HeLa cells under thapsigargin-induced ER stress; antibody 2 h, then Protein A/G Plus agarose overnight at 4 °C; western blot.
The target of assay [2] is death receptor 5 (DR5), human (human (endogenous in HeLa)) (UniProt O14763). Described as above.
Assay [3] has as its target T1, Fas-associated death domain (FADD), mouse (mouse (endogenous in MIN6)) (UniProt Q61160).
T1 sequence: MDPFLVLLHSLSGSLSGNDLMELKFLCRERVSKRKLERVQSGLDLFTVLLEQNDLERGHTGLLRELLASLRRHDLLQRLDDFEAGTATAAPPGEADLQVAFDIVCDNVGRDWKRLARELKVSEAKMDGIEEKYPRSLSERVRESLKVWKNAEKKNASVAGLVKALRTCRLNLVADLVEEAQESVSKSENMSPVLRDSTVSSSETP
The experiment in a line: co-IP; endogenous proteins in MIN6 beta-cell lysates (RIPA buffer); antibody 2 h, then Protein A/G Plus agarose overnight at 4 °C; IgG as negative control; western blot; cells untreated (SERCA2, RyR) or treated with 1 uM thapsigargin for 24 h (FADD, caspase-8; Fig. 6h also untreated, control and Thada-SAM cells). Background: A western blot detects proteins with antibodies after separation by electrophoresis.

The chains behind the UniProt entries cited, without tags or fusion partners. Residues count along the entry.
UniProt Q13158: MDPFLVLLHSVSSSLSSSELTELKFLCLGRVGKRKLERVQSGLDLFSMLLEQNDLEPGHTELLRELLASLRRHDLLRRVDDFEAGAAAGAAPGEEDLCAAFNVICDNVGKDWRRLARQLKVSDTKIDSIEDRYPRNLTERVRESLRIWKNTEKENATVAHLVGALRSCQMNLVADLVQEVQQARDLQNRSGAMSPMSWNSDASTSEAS
UniProt O14763, residues 56-440: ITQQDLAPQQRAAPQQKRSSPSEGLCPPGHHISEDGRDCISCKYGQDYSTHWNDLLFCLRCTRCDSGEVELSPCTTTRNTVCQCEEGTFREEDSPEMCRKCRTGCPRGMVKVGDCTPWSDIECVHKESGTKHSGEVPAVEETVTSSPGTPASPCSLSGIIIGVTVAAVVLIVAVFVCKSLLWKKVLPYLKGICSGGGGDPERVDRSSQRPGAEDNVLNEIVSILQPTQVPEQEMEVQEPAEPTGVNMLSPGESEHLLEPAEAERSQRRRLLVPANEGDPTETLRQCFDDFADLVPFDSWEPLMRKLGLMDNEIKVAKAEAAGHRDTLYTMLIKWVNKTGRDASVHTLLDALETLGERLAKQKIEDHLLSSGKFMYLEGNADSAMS
UniProt O55143: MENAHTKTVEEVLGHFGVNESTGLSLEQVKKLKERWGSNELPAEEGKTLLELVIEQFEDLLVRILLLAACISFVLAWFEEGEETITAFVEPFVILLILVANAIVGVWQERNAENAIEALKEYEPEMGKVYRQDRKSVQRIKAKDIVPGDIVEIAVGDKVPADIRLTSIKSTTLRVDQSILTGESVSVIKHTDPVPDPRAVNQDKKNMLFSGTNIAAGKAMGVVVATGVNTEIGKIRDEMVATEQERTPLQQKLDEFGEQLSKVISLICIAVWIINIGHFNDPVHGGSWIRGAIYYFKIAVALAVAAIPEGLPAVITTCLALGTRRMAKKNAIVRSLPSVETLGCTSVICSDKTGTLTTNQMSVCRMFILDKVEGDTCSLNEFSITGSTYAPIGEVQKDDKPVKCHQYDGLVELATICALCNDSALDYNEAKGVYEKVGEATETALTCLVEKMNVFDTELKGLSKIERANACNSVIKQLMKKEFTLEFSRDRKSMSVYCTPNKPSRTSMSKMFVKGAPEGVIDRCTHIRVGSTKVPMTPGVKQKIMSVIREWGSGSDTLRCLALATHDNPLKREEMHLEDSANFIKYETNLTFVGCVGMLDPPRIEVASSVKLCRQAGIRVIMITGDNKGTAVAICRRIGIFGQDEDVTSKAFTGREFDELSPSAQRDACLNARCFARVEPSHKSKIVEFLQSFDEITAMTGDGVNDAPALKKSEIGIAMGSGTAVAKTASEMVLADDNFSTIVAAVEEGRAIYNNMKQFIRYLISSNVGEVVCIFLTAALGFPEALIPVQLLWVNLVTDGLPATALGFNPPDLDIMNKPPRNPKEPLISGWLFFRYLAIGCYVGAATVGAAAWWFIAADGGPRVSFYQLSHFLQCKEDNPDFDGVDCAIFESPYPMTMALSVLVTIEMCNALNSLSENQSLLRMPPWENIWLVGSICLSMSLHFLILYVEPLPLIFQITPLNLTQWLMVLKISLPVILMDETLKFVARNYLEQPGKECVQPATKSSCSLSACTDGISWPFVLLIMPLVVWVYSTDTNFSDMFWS
UniProt A8C756: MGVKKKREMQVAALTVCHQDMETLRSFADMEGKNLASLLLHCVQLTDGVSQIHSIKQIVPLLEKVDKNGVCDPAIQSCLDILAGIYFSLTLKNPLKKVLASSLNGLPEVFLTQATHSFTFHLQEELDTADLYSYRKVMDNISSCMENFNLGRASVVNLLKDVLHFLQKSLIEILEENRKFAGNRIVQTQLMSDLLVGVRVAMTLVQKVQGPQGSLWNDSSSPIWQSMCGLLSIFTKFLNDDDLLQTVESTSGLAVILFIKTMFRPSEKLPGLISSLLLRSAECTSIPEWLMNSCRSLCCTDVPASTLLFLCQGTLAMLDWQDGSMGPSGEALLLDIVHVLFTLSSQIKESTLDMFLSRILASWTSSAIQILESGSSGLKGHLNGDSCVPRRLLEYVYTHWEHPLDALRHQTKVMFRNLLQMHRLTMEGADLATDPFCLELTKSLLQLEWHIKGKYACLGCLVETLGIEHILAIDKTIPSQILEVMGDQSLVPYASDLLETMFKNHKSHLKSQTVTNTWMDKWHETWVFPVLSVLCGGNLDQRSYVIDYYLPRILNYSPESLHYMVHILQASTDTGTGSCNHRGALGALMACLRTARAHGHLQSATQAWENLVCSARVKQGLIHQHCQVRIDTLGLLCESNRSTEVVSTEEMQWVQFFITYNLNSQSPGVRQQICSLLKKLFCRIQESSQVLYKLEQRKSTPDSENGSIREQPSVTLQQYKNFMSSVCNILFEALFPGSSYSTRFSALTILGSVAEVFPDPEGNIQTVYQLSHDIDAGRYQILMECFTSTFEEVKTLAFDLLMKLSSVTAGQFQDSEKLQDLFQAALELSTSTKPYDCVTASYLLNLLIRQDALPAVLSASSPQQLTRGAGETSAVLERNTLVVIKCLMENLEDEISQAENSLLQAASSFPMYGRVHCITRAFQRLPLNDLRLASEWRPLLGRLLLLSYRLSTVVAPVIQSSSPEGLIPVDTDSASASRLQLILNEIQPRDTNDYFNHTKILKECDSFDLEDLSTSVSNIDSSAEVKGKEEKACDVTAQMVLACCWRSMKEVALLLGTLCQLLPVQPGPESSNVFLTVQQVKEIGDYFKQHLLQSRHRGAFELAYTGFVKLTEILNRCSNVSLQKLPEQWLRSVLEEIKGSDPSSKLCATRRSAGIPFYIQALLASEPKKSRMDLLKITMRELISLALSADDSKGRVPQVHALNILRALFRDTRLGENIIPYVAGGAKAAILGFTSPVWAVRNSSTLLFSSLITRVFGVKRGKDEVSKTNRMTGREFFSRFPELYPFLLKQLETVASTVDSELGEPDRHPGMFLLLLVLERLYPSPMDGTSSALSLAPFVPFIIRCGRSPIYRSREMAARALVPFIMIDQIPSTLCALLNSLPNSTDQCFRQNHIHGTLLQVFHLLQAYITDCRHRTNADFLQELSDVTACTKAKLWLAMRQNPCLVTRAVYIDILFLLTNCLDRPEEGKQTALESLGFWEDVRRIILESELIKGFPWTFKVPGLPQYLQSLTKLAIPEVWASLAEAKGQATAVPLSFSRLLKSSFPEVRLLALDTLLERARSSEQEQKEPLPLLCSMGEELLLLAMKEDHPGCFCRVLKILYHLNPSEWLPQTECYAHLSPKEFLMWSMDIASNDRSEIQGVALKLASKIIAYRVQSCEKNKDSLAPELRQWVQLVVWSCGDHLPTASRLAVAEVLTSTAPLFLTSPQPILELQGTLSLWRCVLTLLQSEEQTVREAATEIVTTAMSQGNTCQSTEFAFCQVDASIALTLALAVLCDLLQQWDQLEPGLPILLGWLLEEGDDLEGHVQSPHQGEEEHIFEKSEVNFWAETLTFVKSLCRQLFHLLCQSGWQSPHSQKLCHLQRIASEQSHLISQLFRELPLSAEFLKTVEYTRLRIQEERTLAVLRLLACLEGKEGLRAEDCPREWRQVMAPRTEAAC
UniProt Q6YHU6: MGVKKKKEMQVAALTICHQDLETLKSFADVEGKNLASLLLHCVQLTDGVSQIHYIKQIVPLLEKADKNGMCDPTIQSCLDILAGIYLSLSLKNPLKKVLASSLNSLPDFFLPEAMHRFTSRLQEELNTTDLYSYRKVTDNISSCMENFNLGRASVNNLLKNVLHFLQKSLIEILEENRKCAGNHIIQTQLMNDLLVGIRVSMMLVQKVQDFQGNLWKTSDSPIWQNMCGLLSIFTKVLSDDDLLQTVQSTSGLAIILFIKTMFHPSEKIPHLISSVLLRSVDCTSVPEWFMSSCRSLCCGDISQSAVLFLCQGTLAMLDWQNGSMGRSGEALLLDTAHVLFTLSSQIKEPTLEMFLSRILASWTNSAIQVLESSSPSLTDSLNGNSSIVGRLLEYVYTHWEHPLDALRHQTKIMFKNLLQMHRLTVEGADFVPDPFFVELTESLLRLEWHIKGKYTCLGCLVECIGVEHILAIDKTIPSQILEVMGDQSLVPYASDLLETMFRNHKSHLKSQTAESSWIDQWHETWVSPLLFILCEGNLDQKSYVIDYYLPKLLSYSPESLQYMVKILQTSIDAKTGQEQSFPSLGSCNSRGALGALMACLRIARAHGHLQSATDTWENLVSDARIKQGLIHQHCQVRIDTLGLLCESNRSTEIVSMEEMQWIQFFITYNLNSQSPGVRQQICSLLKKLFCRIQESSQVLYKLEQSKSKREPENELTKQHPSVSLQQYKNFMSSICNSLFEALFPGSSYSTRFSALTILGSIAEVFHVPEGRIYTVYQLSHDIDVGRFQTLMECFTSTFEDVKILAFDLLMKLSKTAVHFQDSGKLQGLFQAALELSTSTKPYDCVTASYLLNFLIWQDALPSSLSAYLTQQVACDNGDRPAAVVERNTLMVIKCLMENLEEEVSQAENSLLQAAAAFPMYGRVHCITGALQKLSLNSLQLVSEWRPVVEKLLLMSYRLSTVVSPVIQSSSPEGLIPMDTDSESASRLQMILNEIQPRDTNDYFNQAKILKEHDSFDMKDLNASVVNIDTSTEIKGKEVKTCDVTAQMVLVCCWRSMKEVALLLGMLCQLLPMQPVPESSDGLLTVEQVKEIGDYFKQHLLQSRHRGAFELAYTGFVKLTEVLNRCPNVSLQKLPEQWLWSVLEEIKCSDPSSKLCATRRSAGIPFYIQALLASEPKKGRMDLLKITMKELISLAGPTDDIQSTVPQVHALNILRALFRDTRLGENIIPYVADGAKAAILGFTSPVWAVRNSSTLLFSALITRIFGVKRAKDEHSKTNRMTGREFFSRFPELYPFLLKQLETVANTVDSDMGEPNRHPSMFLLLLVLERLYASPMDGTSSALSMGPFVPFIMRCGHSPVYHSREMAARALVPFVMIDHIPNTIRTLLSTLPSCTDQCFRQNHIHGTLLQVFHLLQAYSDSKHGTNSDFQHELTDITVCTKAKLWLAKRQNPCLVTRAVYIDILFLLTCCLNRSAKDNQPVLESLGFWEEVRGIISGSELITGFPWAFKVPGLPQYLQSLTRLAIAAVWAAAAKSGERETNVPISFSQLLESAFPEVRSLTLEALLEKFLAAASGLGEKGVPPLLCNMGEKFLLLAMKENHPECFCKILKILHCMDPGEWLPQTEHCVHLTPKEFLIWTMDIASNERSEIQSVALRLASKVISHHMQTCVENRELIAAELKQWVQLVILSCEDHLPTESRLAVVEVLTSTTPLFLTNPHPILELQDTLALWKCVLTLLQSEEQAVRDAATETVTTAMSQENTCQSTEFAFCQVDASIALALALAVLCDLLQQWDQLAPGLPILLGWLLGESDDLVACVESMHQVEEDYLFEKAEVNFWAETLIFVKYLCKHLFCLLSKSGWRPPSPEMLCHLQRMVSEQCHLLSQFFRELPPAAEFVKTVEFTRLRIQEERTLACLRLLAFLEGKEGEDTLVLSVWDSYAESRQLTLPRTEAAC

The target in assay [4] is T2, caspase-8, mouse (mouse (endogenous in MIN6)) (UniProt O89110).
T2 sequence: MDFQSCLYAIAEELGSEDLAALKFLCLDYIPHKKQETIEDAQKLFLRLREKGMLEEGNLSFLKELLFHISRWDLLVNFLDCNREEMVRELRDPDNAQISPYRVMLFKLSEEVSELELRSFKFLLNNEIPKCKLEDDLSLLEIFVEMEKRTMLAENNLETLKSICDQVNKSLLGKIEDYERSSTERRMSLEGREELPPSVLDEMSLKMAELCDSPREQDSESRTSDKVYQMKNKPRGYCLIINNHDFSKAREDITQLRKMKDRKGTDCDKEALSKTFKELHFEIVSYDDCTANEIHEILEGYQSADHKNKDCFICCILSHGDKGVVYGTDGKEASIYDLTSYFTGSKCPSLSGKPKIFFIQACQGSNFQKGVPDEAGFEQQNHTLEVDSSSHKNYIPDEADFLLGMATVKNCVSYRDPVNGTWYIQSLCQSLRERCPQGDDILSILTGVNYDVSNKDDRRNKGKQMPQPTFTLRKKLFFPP
The description is as above.

Assay [5] concerns the target SERCA2 (Sarco/Endoplasmic Reticulum Ca2+-ATPase 2), mouse (mouse (endogenous in MIN6)) (UniProt O55143). The description is as above.
Assay [6] shares this target. The experiment in a line: proximity ligation; DuoLink PLA in MIN6 beta-cell line on chamber slides; THADA with anti-rabbit PLUS probe, SERCA2/RyR with anti-mouse MINUS probe; confocal microscopy.
Assay [7] deals with Thyroid Adenoma Associated (THADA), mouse (mouse (endogenous in MIN6)) (UniProt A8C756). The assay is described as follows: co-IP; endogenous proteins in MIN6 beta-cell lysates (RIPA buffer); antibody 2 h, then Protein A/G Plus agarose overnight at 4 °C; IgG as negative control; western blot; cells untreated (SERCA2, RyR) or treated with 1 uM thapsigargin for 24 h (FADD, caspase-8; Fig. 6h also untreated, control and Thada-SAM cells).

Drawing on paper PMC9950491, this text covers binding for three substances.

No constants are given. Whether binding was seen depends on the method and setting. In cells and extracts the contact can be indirect. Some entries that bind do so weakly or less than the wild type.

Turning to “Thyroid Adenoma Associated (THADA), human (from UniProt Q6YHU6 1-1953)”, the binding result in assay [1] and in assay [2] was “binds” throughout.
Take “Thyroid Adenoma Associated (THADA), mouse (from UniProt A8C756 1-1938)”: the binding entry in assay [3], in assay [4], in assay [5] and in assay [6] was “binds” throughout.
For the substance “Fas-associated death domain (FADD), mouse (from UniProt Q61160 1-205)”, the binding result in assay [7] is recorded as “binds”.
